In publication PMC11515916:
These are yes or no findings as the source states them, for the method shown. Binding seen in cells or lysates may run through a third protein. Binding calls can cover weak binding; strength is not graded here. Where a sequence is shown, tags or fusion partners need not be part of it.

Molecular target: Myc-tagged ZNF8 domain ZF repeats
Assay: co-IP; IP with anti-Myc or anti-Flag antibody in HEK293T cells co-transfected with Flag- and Myc-tagged proteins and their deletion mutants or domains

B1: Flag-SMYD3 (protein, UniProt Q9H7B4 1-428)
chain: MEPLKVEKFATAKRGNGLRAVTPLRPGELLFRSDPLAYTVCKGSRGVVCDRCLLGKEKLMRCSQCRVAKYCSAKCQKKAWPDHKRECKCLKSCKPRYPPDSVRLLGRVVFKLMDGAPSESEKLYSFYDLESNINKLTEDKKEGLRQLVMTFQHFMREEIQDASQLPPAFDLFEAFAKVICNSFTICNAEMQEVGVGLYPSISLLNHSCDPNCSIVFNGPHLLLRAVRDIEVGEELTICYLDMLMTSEERRKQLRDQYCFECDCFRCQTQDKDADMLTGDEQVWKEVQESLKKIEELKAHWKWEQVLAMCQAIISSNSERLPDINIYQLKVLDCAMDACINLGLLEEALFYGTRTMEPYRIFFPGSHPVRGVQVMKVGKLQLHQGMFPQAMKNLRLAFDIMRVTHGREHSLIEDLILLLEECDANIRAS
- binding: binds
